Taken from: PubChem BioAssay AID686943 (Drosophila RNAi Screening Center, 2013)
The screen tested about 23,000 reagents; below is a random part of those with a known target gene and a result. 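Extra replicates exist only for a retested subset of genes; insulin dose and duration not given; both raised and lowered dpERK matter.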 A plus sign joins genes that one reagent is predicted to hit. Further read-outs or replicates are left out here. No sequences are given here. The record does not give: the amount of reagent, the time to read-out.

- Purpose: 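Knockdowns that increase or decrease active ERK after insulin receptor stimulation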 (primary screen)
- System: Drosophila S2R+ haemocyte-like cells expressing YFP-tagged ERK (Rolled)
- Reagent: long dsRNA against Drosophila genes
- Conditions: insulin stimulation versus unstimulated cells; dose and duration not given
- Measurement: 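Per-plate z-scores of phospho-ERK immunostaining normalised to YFP-tagged ERK, measured with and without insulin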
- Reading the numbers: replicate 1, z-score of dpERK with insulin: higher = more active ERK per ERK-YFP after insulin

| predicted target | DRSC id | replicate 1, z-score of dpERK with insulin |
| --- | --- | --- |
| zfh1 (Zn finger homeodomain 1) | DRSC14014 | -0.77 |
| zfh1 (Zn finger homeodomain 1) | DRSC17098 | -3.52 |
| CG43244 | DRSC05336 | -0.07 |
| nol (no optic lobe) | DRSC21425 | -0.03 |
| Myo95E (Myosin 95E) | DRSC15821 | -0.35 |
| CG43153 | DRSC01189 | 0.55 |
| Sod1 (Superoxide dismutase 1) | DRSC11286 | 0.31 |
| CG14566 | DRSC11727 | 0.42 |
| mute (muscle wasted) | DRSC06562 | -2.27 |
| mute (muscle wasted) | DRSC22931 | -1.18 |
| CG33459 | DRSC05615 | 0.28 |
| CG16965 | DRSC02547 | -0.29 |
| Ada2b (transcriptional Adaptor 2b) | DRSC16531 | 0.48 |
| CG10182 | DRSC14202 | -0.8 |
| Tmtc3 (Transmembrane O-mannosyltransferase targeting cadherins 3) | DRSC04444 | -0.26 |
| CG4465 | DRSC15584 | -0.53 |
| Cul5 (Cullin 5) | DRSC14723 | 0.83 |
| CG15432 | DRSC00447 | 3.02 |
| CG13117 | DRSC02215 | 0.15 |
| RpS28b (Ribosomal protein S28b) | DRSC18258 | 0.01 |
| CG15208 | DRSC19654 | -0.13 |

Targets listed so far whose gene name begins with Z or z:
| predicted target | DRSC id | replicate 1, z-score of dpERK with insulin |
| --- | --- | --- |
| zfh1 (Zn finger homeodomain 1) | DRSC14014 | -0.77 |
| zfh1 (Zn finger homeodomain 1) | DRSC17098 | -3.52 |

The results go on.
| predicted target | DRSC id | replicate 1, z-score of dpERK with insulin |
| --- | --- | --- |
| CG17684 | DRSC07724 | 0.08 |
| CG17684 | DRSC21166 | 0.2 |
| CG16956 | DRSC02544 | 0.23 |
| bc10 | DRSC11326 | 0.78 |
| Eph (Eph receptor tyrosine kinase) | DRSC17164 | -1.13 |
| Gbp3 (Growth-blocking peptide 3) | DRSC15206 | -0.46 |
| Coq4 + frc | DRSC10381 | -1.15 |
| Coq4 + frc | DRSC10382 | -0.52 |
| CG1299 | DRSC08300 | 0.85 |
| CG11970 | DRSC14157 | 0.06 |
| Jon25Biii (Jonah 25Biii) | DRSC03115 | 0.55 |
| brwl (brickwall) | DRSC01080 | -0.77 |
| brwl (brickwall) | DRSC02729 | -0.42 |
| CG6996 | DRSC10758 | 0.7 |
| CG17726 | DRSC15255 | 0.81 |
| Ube3a (Ubiquitin protein ligase E3A) | DRSC10600 | 0.23 |
| AdamTS-A (ADAM metallopeptidase with thrombospondin type 1 motif A) | DRSC14992 | 0.39 |
| AdamTS-A (ADAM metallopeptidase with thrombospondin type 1 motif A) | DRSC15966 | 0.4 |
| CG10581 | DRSC11623 | -0.4 |
| term (terminus) | DRSC21730 | 1.59 |
| CG6479 | DRSC10647 | -1.2 |
| Spn (Spinophilin) | DRSC07986 | 0.86 |
| Spn (Spinophilin) | DRSC08490 | 0.87 |
| Spn (Spinophilin) | DRSC08491 | 0.36 |
| Gem4b + Gem4c + Glos | DRSC18244 | 1.27 |
| CG42241 (retired record) | DRSC04007 | -0.01 |
| CG4462 | DRSC15583 | -0.65 |
| sqz (squeeze) | DRSC16980 | 0.43 |
| Obp57e (Odorant-binding protein 57e) | DRSC05891 | -0.69 |
| CG11370 | DRSC11653 | -0.52 |
| Tdc2 (Tyrosine decarboxylase 2) | DRSC04999 | -0.91 |
| CG7518 | DRSC16253 | -0.7 |
| CG14024 | DRSC00868 | -0.13 |
| CG14024 | DRSC02354 | -0.25 |
| CG16964 | DRSC02546 | -0.44 |
| Max | DRSC11218 | -0.38 |
